# This is one part of the list. The data scatter; read single values as rough.
# Chains of the proteins cited; added tags and fusions are not shown. Lines headed by an entry give the natural chain unless they say otherwise; changes in a name come on top.
# UniProt Q9UPN7: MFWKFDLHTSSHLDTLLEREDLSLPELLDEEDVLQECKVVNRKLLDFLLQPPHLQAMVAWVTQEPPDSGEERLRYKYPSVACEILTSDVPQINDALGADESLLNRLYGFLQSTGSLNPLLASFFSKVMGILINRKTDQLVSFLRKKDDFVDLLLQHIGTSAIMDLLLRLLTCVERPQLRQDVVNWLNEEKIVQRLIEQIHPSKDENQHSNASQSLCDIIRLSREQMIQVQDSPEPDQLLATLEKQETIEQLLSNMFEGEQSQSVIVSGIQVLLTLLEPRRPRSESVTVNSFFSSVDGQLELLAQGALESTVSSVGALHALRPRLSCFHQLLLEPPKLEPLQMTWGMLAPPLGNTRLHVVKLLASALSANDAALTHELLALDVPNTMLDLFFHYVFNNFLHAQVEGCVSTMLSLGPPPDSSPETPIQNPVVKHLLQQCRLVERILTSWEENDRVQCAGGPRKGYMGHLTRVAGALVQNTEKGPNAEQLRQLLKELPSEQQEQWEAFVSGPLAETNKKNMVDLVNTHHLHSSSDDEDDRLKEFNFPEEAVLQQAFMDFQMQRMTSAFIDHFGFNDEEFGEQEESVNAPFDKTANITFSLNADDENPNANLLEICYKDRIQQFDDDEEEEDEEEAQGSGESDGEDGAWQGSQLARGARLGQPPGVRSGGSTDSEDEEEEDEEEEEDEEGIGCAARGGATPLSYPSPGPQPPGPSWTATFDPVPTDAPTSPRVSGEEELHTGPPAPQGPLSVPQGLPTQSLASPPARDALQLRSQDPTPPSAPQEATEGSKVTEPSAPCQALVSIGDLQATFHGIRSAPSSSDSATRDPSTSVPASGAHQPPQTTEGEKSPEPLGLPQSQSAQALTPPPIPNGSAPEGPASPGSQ
# UniProt Q969Q6: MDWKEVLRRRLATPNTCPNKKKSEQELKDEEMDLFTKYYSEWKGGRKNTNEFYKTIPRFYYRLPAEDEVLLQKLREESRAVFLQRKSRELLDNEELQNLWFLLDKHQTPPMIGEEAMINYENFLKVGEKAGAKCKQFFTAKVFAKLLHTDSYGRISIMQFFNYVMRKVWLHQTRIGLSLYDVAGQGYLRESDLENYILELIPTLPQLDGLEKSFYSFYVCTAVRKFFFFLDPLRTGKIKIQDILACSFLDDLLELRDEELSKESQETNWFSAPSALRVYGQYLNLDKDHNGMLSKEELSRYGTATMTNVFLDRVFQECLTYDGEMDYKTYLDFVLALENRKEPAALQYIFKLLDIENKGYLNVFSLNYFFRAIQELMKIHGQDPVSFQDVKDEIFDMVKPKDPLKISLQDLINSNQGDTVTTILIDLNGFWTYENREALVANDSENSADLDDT
# UniProt Q9BZL4: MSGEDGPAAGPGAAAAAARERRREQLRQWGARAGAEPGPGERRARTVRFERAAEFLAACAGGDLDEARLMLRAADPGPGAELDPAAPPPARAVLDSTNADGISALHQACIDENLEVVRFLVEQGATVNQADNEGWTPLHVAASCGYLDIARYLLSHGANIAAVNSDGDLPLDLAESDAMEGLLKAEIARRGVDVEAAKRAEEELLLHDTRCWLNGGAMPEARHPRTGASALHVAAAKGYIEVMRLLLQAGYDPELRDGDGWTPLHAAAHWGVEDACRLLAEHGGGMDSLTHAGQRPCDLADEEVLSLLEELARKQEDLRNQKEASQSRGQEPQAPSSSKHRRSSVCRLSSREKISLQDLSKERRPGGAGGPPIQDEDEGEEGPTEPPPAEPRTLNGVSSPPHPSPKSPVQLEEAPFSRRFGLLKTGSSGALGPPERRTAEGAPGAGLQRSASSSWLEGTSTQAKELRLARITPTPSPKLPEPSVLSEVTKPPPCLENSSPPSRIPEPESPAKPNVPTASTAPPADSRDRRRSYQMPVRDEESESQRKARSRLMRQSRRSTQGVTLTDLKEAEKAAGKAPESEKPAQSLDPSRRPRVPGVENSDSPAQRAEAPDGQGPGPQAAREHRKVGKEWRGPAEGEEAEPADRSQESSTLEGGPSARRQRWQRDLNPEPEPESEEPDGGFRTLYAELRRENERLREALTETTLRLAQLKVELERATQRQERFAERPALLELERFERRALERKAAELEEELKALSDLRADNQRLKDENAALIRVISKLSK
# UniProt Q9NY27: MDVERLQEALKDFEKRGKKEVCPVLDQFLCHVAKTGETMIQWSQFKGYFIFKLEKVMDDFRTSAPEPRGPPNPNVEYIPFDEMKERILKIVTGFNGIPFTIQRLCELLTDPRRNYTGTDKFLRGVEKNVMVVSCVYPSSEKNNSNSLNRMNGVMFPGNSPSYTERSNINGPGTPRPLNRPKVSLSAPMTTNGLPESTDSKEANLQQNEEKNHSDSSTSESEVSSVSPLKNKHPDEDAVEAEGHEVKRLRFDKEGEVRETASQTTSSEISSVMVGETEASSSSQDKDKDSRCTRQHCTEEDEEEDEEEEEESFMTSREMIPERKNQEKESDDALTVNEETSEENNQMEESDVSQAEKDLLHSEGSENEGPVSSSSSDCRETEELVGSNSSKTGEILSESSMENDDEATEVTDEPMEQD
# UniProt Q99633: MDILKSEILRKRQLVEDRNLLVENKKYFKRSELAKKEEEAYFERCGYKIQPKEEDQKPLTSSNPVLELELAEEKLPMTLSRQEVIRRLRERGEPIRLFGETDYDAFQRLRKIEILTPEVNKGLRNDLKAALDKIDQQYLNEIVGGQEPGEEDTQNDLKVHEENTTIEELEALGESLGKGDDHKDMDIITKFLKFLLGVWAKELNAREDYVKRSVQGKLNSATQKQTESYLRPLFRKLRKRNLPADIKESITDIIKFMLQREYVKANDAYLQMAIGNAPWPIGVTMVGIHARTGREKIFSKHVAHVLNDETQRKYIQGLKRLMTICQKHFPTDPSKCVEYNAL
# UniProt P30041: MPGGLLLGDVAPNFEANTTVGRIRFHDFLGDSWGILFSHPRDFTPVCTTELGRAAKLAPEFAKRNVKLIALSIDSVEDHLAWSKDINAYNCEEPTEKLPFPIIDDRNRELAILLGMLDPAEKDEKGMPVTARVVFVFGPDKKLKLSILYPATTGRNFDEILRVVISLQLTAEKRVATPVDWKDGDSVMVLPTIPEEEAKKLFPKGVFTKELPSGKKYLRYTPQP
# UniProt P05771, whole entry, looked up: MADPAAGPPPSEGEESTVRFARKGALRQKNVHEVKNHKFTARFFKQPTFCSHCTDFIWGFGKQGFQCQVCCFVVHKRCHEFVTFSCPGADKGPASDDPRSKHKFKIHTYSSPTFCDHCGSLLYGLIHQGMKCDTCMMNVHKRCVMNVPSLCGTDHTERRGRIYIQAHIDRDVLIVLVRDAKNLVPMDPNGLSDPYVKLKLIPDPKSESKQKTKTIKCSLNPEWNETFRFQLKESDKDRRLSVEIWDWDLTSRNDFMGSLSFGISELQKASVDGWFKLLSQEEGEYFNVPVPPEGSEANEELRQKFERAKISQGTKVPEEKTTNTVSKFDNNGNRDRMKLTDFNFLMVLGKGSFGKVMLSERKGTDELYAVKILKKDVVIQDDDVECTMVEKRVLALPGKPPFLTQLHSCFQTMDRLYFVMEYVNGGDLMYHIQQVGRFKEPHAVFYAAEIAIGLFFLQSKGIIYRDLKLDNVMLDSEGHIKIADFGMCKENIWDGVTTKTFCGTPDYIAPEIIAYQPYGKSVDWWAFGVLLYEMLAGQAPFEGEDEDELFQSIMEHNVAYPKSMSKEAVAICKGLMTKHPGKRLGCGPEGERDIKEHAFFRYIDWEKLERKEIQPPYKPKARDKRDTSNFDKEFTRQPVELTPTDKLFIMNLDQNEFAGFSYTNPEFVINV
# UniProt P11908: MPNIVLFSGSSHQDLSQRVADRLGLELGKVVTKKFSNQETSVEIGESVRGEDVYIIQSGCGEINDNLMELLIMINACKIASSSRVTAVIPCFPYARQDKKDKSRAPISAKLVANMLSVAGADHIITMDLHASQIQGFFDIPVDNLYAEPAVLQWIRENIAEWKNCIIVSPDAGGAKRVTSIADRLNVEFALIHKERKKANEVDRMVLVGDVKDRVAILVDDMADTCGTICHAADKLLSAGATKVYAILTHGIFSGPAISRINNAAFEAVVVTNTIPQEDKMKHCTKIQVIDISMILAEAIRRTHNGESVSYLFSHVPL
# UniProt P60510: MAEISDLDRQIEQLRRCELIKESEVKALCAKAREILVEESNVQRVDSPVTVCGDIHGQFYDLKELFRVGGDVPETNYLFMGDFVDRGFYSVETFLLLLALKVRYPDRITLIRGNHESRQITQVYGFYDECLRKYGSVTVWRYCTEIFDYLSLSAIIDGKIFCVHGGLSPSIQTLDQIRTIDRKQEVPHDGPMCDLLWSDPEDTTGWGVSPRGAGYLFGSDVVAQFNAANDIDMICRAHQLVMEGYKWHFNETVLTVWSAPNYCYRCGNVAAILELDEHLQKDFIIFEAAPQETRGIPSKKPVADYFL
# UniProt O95685: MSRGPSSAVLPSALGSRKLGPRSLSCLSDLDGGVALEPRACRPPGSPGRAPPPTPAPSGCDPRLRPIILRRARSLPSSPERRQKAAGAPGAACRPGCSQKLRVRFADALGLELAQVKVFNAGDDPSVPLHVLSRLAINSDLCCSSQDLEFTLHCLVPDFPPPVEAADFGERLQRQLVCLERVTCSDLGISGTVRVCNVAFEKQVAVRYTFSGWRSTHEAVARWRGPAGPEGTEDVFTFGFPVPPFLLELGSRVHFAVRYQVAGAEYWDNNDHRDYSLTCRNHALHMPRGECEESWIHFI
# UniProt O00411: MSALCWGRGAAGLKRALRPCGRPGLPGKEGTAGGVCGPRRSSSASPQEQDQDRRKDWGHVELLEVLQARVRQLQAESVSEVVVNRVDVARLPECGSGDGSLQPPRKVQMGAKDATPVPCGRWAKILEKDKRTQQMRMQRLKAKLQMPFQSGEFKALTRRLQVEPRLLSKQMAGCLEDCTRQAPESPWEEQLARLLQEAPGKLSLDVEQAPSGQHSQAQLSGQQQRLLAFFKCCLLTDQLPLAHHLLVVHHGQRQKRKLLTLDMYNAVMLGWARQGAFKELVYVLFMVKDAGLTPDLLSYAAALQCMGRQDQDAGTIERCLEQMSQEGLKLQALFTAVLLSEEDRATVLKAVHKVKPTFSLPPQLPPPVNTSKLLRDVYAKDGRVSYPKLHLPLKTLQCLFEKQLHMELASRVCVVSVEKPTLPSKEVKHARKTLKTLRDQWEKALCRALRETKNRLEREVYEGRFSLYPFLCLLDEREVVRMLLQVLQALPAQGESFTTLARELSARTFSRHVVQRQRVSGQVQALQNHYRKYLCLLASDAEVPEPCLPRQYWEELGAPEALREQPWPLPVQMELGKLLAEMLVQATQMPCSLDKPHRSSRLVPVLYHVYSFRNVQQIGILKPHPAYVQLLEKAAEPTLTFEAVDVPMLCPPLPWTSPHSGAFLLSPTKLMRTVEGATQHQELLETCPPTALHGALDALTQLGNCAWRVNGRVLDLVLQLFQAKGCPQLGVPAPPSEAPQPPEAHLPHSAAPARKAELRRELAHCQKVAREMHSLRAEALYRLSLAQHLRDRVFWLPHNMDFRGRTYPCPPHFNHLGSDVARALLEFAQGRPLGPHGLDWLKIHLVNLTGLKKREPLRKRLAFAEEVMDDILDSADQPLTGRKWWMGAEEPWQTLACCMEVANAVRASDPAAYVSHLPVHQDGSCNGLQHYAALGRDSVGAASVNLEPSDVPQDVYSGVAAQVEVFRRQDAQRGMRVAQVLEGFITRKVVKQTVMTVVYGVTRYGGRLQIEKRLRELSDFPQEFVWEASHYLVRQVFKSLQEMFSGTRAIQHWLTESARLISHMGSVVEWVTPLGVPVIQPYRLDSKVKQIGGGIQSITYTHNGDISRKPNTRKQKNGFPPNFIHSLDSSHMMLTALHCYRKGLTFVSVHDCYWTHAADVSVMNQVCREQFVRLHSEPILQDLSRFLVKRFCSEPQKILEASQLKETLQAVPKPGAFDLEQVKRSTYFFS
# UniProt P30153, whole entry, looked up: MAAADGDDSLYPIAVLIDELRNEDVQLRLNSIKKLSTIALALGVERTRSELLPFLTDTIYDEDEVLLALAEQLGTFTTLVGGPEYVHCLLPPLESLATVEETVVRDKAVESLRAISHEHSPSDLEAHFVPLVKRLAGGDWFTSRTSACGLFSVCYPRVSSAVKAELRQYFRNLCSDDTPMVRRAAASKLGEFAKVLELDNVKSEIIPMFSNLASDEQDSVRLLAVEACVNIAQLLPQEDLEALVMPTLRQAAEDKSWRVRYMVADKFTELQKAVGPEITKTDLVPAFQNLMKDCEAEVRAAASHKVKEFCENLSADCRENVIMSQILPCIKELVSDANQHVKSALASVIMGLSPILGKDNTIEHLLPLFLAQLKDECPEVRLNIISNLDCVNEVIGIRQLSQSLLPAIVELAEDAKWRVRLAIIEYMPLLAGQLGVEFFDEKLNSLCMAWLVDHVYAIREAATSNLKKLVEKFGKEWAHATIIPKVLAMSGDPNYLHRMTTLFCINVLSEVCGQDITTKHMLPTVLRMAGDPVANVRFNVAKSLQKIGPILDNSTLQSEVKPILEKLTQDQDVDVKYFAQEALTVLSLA
# Compound: ClCC(=O)N[C@@H]1CCCc2ccccc12
# Test: log2 mean competition ratio of IA-DTB cysteine labelling (DMSO/compound) (log2 ratio); higher = stronger cysteine engagement by compound
# Conditions: 50 µM; treatment time: 4 h; cell line lysate: HEK293T
# Protocol: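 IA-DTB competitive cysteine chemoproteomics in HEK293T RIPA lysate. Lysates were treated with compound 29 or 30 at 50 or 200 µM for 4 h, then IA-DTB (500 µM, 1 h), trypsin-digested, NeutrAvidin-enriched and analysed by diaPASEF. Competition ratio = intensity DMSO / intensity compound (n=4 treated, n=64 DMSO); binding: mean log2 CR ≥ 1 and p ≤ 0.05 plus QC filters. Target is the cysteine site.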
row,Target,log2 mean competition ratio
1,PPP6C C129 (UniProt O00743),-0.0624
2,PPP6R1 C437 (UniProt Q9UPN7),0.101
3,POLR2M C82,0.34
4,PPP2R3C C17 (UniProt Q969Q6),0.00982
5,POLR2B C892 (UniProt P30876),-0.0358
6,PPP1R12C C211 (UniProt Q9BZL4),-0.101
7,PRPF19 C114 (UniProt Q9UMS4),-0.0813
8,PPP4R2 C134 (UniProt Q9NY27),-0.0579
9,PPIP5K2 C338,-0.242
10,PRPF18 C325 (UniProt Q99633),0.00426
11,POLR3A C934 (UniProt O14802),-0.134
12,POLR2B C357 (UniProt P30876),-0.17
13,PRDX6 C47 (UniProt P30041),-1.29
14,PRKCB C488 (UniProt P05771),-0.0883
15,PREP C57,-0.179
16,PRPS2 C165 (UniProt P11908),-0.0659
17,PPP4C C266 (UniProt P60510),0.309
18,PPP1R3D C60 (UniProt O95685),-0.0393
19,POLRMT C765 (UniProt O00411),0.19
20,PPP2R1A C377 (UniProt P30153),-0.0251

# Same assay, conditions: 200 µM; treatment time: 4 h; cell line lysate: HEK293T
row,Target,log2 mean competition ratio
1,PPP6C C129 (UniProt O00743),0.0208
2,PPP6R1 C437 (UniProt Q9UPN7),0.227
3,POLR2M C82,0.0979
4,PPP2R3C C17 (UniProt Q969Q6),0.142
5,POLR2B C892 (UniProt P30876),0.0725
6,PPP1R12C C211 (UniProt Q9BZL4),-0.149
7,PRPF19 C114 (UniProt Q9UMS4),0.212
8,PPP4R2 C134 (UniProt Q9NY27),-0.288
9,PPIP5K2 C338,0.00239
10,PRPF18 C325 (UniProt Q99633),-0.193
11,POLR3A C934 (UniProt O14802),-0.217
12,POLR2B C357 (UniProt P30876),0.0589
13,PRDX6 C47 (UniProt P30041),-1.36
14,PRKCB C488 (UniProt P05771),0.22
15,PREP C57,-0.0884
16,PRPS2 C165 (UniProt P11908),-0.392
17,PPP4C C266 (UniProt P60510),-0.133
18,PPP1R3D C60 (UniProt O95685),0.0561
19,POLRMT C765 (UniProt O00411),-0.0606
20,PPP2R1A C377 (UniProt P30153),0.0207

# Source: the supplement of paper PMC11732987, “Enantioselective OTUD7B fragment discovery through chemoproteomics screening and high-throughput optimisation” (Communications Chemistry, 2025)
